Reference: patent publication US20220144957A1 (IMMUNECENT BIOTECHNOLOGY, published 2022)
No constants are given. Whether binding was seen depends on the method and setting. Some entries that bind do so weakly or less than the wild type.

Protein sequences, listed by entry. Tags and fused reporters are not part of them. Residues count along the entry.
UniProt P17181, residues 28-557: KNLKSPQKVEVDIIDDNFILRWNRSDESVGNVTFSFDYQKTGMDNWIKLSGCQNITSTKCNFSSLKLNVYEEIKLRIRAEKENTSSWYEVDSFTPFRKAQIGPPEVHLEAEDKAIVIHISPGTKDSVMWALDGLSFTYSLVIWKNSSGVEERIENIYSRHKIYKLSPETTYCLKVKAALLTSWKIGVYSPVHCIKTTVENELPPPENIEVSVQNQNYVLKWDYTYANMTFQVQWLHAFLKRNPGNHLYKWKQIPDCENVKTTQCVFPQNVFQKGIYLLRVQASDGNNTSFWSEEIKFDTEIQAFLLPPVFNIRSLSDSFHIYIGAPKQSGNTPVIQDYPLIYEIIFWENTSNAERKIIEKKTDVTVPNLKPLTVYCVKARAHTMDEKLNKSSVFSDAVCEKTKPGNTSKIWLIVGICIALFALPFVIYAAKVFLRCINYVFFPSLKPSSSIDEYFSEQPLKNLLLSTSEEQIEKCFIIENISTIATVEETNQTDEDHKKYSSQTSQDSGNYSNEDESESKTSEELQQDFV

Biological target: human IFNAR1, full length (IFNAR1-aa1-557) (human) (UniProt P17181)
Experiment: flow cytometry on cells expressing human IFNAR1, MFI of PE

binding: binds
B1: 7G4 Chimeric (antibody, V domains shown)
VH: QVQLQQPGAELVKPGAPVKLSCKASGYTFTSYWMNWVRQRPGRGLEWIGKIDPSDSETHFNQKFRDKATLTVDKSSTTAYIQLSSLTSEDSAVYYCARGGRISFDYDAALDYWGQGTSVTVSS
VL: DILMTQSSSSFSVSLGDRVTITCKSSEVIYNRLAWFQQKPGNAPRLLISGATTLESGFPSRFSGSGSGKDYTLSITSLQIEDVSTYYCQQYWNKPFTFGSGTKLEVK
